Some results were stated once for a whole list of compounds, not compound by compound.
How the values were obtained:
CFA-hindpaw inflammation = test: CFA-hindpaw inflammation, paw pressure test (CFA-PPT), intraperitoneal injection; format: in vivo, rat; conditions: ip; Lidocaine 21.5 mg/kg, Diclofenac 68.1 mg/kg
Experimental: An interaction study was performed as a single dose study in the CFA-hindpaw inflammation, paw pressure test.
In comparative example 1 and inventive examples 1 to 4 described below, a compound or combination of compounds was administered by intraperitoneal injection (FIGS. 1 to 9).
(§1) The pain was measured by pressing a pointer on the inflamed paw. The pointer exerts a force, increasing at a constant rate, monitored by a linear scale. Pain is deemed to be perceived one the rat starts to withdraw the paw. This value (withdrawal threshold in gram) is the pressure at which the animal feels pain (cut-off 450 g). Efficacy of the test compounds is expressed as a percent change of withdrawal threshold after compound administration to the pre-value (withdrawal threshold before compound administration).

[1] = system: CFA-induced paw edema / mechanical-hyperalgesia; test: CFA-hindpaw inflammation, paw pressure test (CFA-PPT), topical application to the paw as ointment or solution; format: in vivo, male albino rats; conditions: for efficacy (% change of withdrawal threshold to prevalue) alone: 80 mg/ml of Diclofenac alone or 40 mg/ml of Lidocaine alone, 150 min and 180 min; for efficacy (% change of withdrawal threshold to pre-value) when given alone: Diclofenac 60 mg/ml, Lidocaine 40 mg/ml, after 90 min
Experimental: In comparative example 2 and inventive examples 5 to 8 as described below, a compound or combination of compounds was administered topically to the paw by means of an ointment or solution (FIGS. 10 to 18).
The efficacy was tested when a compound or a compositions of compounds was administered topically as an ointment or a solution. The study was performed on male albino rats (150-180 g body weight) to which an edema of paw was induced by injection of Complete Freunds Adjuvant (CFA). CFA is a composition of inactivated and dried Myobacteria tuberculoses, emulsified in mineral oil which is used as an immunopotentiator causing a painful reaction that lasts 7-8 days after subcutaneous injection.
The studies of comparative example 2 and inventive examples 5 to 8 were performed according to the following procedure: 50 μL of CFA were injected sub plantar into the right hind paw, inducing mechanical-hyperalgesia after 24 hours. During a short anaesthesia an ointment comprising one compound or a combination of compounds was administered to the right hind paw and the paw was wrapped with polyethylene (PE)-foil and a smooth tape to prevent licking of the paw. The formulation of the vehicle was 4% hydroxypropylmethylcellulose (HPMC)/10% dimethylsulfoxide (DMSO) and aqua ini.
as §1

Row | Compound | efficacy (% change of withdrawal threshold to prevalue) when given alone (CFA-hindpaw inflammation) | efficacy (% change of withdrawal threshold to prevalue) alone [1] | efficacy (% change of withdrawal threshold to pre-value) when given alone [1]
1 | CCN(CC)CC(=O)Nc1c(C)cccc1C [Lidocaine, 2-(diethylamino)-N-(2,6-dimethylphenyl)acetamide] | 20-25% | under 15% | 15-25%
2 | O=C(O)Cc1ccccc1Nc1c(Cl)cccc1Cl [Diclofenac, 2-(2,6-dichloranilino) phenylacetic acid] | 20-25% | under 15% | 15-25%
